Measured values: paper PMC12627864
These are yes or no findings as the source states them, for the method shown. Binding seen in cells or lysates may run through a third protein. Some binding calls cover weakened binding; strength is not graded here. Each block holds one molecule with its values, some of them ahead of it.

Protein sequences, listed by entry. Tags and fused reporters are not part of them.
UniProt Q9WTL8: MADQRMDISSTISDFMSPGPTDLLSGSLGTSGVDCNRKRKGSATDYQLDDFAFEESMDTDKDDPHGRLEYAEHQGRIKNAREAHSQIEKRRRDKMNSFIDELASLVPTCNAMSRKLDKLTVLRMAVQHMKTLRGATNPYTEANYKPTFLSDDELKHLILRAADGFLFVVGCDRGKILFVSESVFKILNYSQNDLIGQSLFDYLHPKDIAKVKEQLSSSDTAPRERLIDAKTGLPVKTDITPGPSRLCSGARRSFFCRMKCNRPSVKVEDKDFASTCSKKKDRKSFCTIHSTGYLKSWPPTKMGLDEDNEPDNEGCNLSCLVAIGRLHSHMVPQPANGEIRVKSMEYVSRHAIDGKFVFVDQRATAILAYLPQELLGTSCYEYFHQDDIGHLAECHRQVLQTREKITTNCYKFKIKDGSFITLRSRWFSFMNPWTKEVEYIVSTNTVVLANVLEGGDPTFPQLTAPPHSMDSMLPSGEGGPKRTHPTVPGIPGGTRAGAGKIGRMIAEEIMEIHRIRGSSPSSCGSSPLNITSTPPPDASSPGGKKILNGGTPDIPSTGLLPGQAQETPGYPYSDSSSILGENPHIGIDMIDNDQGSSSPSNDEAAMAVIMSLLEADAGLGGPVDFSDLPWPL

Assays:
PERIOD (PER)3 = target: T1, PERIOD (PER)3 (UniProt O70361); assay: co-IP; Co-IP kit; lysate incubated overnight at 4 °C with anti-BMAL1, anti-PER3 or IgG antibodies, magnetic beads, Western blot of the eluate; both directions
T1 sequence: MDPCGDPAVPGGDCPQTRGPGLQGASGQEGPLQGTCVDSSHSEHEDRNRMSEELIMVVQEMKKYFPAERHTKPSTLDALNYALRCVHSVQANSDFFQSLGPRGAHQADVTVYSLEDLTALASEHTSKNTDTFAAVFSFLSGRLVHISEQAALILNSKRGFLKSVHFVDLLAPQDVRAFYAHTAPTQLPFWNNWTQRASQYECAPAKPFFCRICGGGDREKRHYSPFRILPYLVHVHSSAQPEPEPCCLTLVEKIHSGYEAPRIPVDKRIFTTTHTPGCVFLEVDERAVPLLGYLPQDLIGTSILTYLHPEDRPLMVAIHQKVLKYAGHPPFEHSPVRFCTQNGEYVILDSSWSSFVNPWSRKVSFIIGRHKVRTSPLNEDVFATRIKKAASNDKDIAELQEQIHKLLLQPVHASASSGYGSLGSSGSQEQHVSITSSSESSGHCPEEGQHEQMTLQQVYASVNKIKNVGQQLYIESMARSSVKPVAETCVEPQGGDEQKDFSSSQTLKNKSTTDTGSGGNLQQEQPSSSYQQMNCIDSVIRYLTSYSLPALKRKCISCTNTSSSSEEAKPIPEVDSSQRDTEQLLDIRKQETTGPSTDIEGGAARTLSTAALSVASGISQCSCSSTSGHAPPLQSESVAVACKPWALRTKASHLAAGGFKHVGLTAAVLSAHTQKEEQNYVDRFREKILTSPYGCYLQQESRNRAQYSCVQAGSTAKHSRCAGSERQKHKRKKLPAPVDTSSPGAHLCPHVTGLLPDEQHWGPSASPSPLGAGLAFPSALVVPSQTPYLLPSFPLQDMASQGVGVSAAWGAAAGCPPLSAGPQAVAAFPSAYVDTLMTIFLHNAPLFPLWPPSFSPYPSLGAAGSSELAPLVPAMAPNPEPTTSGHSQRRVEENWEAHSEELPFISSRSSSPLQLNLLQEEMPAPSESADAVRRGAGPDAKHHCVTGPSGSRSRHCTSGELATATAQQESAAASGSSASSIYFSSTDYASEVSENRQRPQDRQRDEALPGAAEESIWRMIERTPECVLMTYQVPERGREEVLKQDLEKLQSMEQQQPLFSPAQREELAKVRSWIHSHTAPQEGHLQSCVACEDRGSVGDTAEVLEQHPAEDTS

BMAL1 = BMAL1 (UniProt Q9WTL8); assay: as above

- binding (PERIOD (PER)3): binds
Molecule: BMAL1 (from UniProt Q9WTL8 1-632)

- binding (BMAL1): binds
B1: PERIOD (PER)3 (protein, UniProt O70361 1-1113)
chain: T1 sequence
